# In PubChem BioAssay AID1347076 (National Center for Advancing Translational Sciences (NCATS), 2019):
# In all, about 400,000 compounds went through this assay and about 13,000 (3.2%) were called active. The shares of active, inactive and inconclusive entries below differ from those in the screen. Calls come from the whole dose curve; as a rule, active = well fitted cell-killing curve with a large enough effect; inconclusive = small, poorly fitted or top-dose-only effect, or effect the other way; inactive = flat fitted curve, though single readings scatter. Where the call is inconclusive, the potency comes from a doubtful curve fit.
# Assay: qHTS assay for MDR1-selective chemotherapeutics: Primary screen using the drug-selected MDR subline cells KB-V1; note: nearly all actives have a fitted effect of over 60% in size
# Conditions: KB-V1 MDR cells viability, CellTiter-Glo, 72 h; activity change, negative = cytotoxicity: at 46.1 µM (top of the series)
# Procedure, shortened: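 Compound-treated KB-V1 multidrug-resistant cells, 72 h, 37 degrees C; viability by CellTiter-Glo. Fitted qHTS curves give the values.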
# % is set by controls: 0 for no effect and ±100 for the full control effect; potency is the fitted concentration of half-maximal effect.
SMILES,Potency,"activity change, negative = cytotoxicity"
CC1=NN(c2ccccc2)C(=O)/C1=C/c1ccc(Cl)cc1,inactive,
CCOc1c(C)cc2[nH]c(CCC(=O)O)nc2c1C,"inconclusive: 20.6 µM [rising, single point]",
Cc1nc(SCc2ccccc2Cl)c(C#N)c(C)c1C,"inconclusive: 13 µM [rising, single point]",
Cn1c(SCC(=O)N2CCc3ccccc3C2)nnc1-c1ccncc1,inactive,
COCCCNC(=O)C(=O)NCC1CCCN1S(=O)(=O)c1cccs1 (configuration not stated),inactive,
CC(C)CC(N)c1csc(Nc2cc(Oc3ccccc3)ncn2)n1 (configuration not stated),"inconclusive: 2.31 µM [cytotoxic, partial curve, poor fit]",
S=C(Nc1ccccn1)Nc1ccccc1Cl,"inconclusive: 16.4 µM [cytotoxic, single point]",
COc1ccc(N2CCN(C(=O)C(=O)c3ccc(F)cc3)CC2)cc1,"inconclusive: 29.1 µM [cytotoxic, partial curve, poor fit]",
COc1ccc(Cl)cc1N1C(=NC(=O)C2CCCCC2)SC2CS(=O)(=O)CC21 (configuration not stated),"inconclusive: 3.66 µM [cytotoxic, full curve, poor fit]",
O=C(c1ccc(Cl)cc1Cl)N1CCN(c2ccc(N3CCOCC3)nn2)CC1,"inconclusive: 16.4 µM [cytotoxic, single point]",
c1ccc(Cc2nn3c(Cn4nnc5ccccc54)nnc3s2)cc1,active: 23.1 µM,
CCN(CC)S(=O)(=O)c1cccc(C(=O)NCCc2ccccc2)c1,active: 9.2 µM,
CCOC(=O)Nc1ccc2c(c1)C(=NO)c1ccccc1-2,active: 8.2 µM,
CCOc1ccc(NC(=O)CCNS(=O)(=O)c2ccc3c(c2)c(=O)n(C)c(=O)n3C)cc1,inactive,
C=CCc1cc(Cl)ccc1OCCNCCCOC,"inconclusive: 20.6 µM [cytotoxic, single point]",
Cc1[nH][nH]c(=O)c1N=Nc1ccccc1,"inconclusive: 29.1 µM [cytotoxic, single point]",
Cc1cccc(Oc2sc(C(=O)c3ccccc3)c(N)c2C#N)c1,"inconclusive: 25.9 µM [cytotoxic, single point]",
Cc1ccc2c(=O)cc(C(=O)Nc3ccc(S(=O)(=O)N4CCCCC4)cc3)oc2c1,inactive,
Cc1nnc(SCc2cc(=O)oc3ccc4ccccc4c23)n1Cc1ccccc1,active: 16.4 µM,
O=C(COC(=O)c1cc([N+](=O)[O-])ccc1N1CCOCC1)Nc1ccccc1OC(F)F,"inconclusive: 14.6 µM [cytotoxic, partial curve]",
COc1ccccc1NS(=O)(=O)c1ccc(C(=O)NCC(c2cccs2)N2CCOCC2)cc1 (configuration not stated),,inconclusive: -24.4%
Cc1ccc(NC(=O)CN(C)Cc2nc3ccccc3c(=O)[nH]2)c(Br)c1,"inconclusive: 13 µM [cytotoxic, partial curve, poor fit]",
CCCCn1nc(C(=O)NC2CCCCC2)c2ccccc2c1=O,inactive,
CC(C)NC(=O)c1cc(-c2ccco2)nn1-c1ccc(Cl)cc1,"inconclusive: 23.1 µM [cytotoxic, partial curve, poor fit]",

# Shown with bars between the fields: part of the list above
SMILES | Potency | activity change, negative = cytotoxicity
CCOc1c(C)cc2[nH]c(CCC(=O)O)nc2c1C | inconclusive: 20.6 µM [rising, single point] | 
Cc1nc(SCc2ccccc2Cl)c(C#N)c(C)c1C | inconclusive: 13 µM [rising, single point] | 
COc1ccc(Cl)cc1N1C(=NC(=O)C2CCCCC2)SC2CS(=O)(=O)CC21 (configuration not stated) | inconclusive: 3.66 µM [cytotoxic, full curve, poor fit] | 
CCOc1ccc(NC(=O)CCNS(=O)(=O)c2ccc3c(c2)c(=O)n(C)c(=O)n3C)cc1 | inactive | 

# (list continues)

SMILES,Potency,"activity change, negative = cytotoxicity"
COc1ccc(OC)c(CN(CCN2CCOCC2)C(=O)Nc2cccc(Cl)c2)c1,active: 3.66 µM,
Cc1cc(C)c(S(=O)(=O)Nc2cccc(/C=C/C(=O)O)c2)c(C)c1,inactive,
Cc1cnn(CCC(=O)NNC(=S)Nc2ccc(F)cc2)c1,inactive,
Cc1ccc(N/N=C(/Sc2nnnn2-c2ccccc2)C(=O)c2ccccc2)cc1,active: 20.6 µM,
CCC(C)n1c(=N)c(C(=O)NC2CCCC2)cc2c(=O)n3ccccc3nc21 (configuration not stated),inactive,
CC(C)(C)n1nnnc1C(c1cc2ccccc2o1)N1CCN(C(=O)OCc2ccccc2)CC1 (configuration not stated),inactive,
CC1=NN(c2ccc(C)cc2)C(=O)/C1=C\c1ccc(Br)s1,"inconclusive: 20.6 µM [cytotoxic, single point]",
CC1(C)CC(=O)C=C(NNC(=O)C2CCCCC2)C1,"inconclusive: 5.62 µM [rising, partial curve, poor fit]",
O=C1CSC(=S)N1/N=C/c1ccc(O)c(O)c1O,inactive,
CCOc1ccc(NC(=O)Cn2cc(C(=O)c3ccc(OC)cc3)c(=O)c3cc4c(cc32)OCO4)cc1,"inconclusive: 2.31 µM [cytotoxic, full curve, poor fit]",
CCOc1ccc(Nc2cc(C)nc3c(C)cccc23)cc1,"inconclusive: 16.4 µM [cytotoxic, partial curve, poor fit]",
O=[N+]([O-])c1ccc(Cl)c(/C=N/N2CCN(Cc3ccc(Cl)cc3)CC2)c1,"inconclusive: 12.6 µM [rising, single point]",
O=C1CC(C(=O)Nc2ccc(Cl)cc2[N+](=O)[O-])C2(CCCCC2)O1 (configuration not stated),active: 14.6 µM,
CCN1C(=NCCc2ccccn2)N[C@@H](c2cccc(C(F)(F)F)c2)C(C(=O)OC)=C1C,"inconclusive: 29.1 µM [rising, single point]",
O=C(NCCN1CCN(c2ccccc2)CC1)Nc1ccc(Cl)cc1,inactive,
O=C(Nc1ccc(Cl)c(-c2nc3ccccc3o2)c1)c1ccc(-c2cccc([N+](=O)[O-])c2)o1,"inconclusive: 23.1 µM [cytotoxic, partial curve, poor fit]",
Cc1cc(N)n2ncc(-c3ccc(Cl)cc3)c2n1,"inconclusive: 29.1 µM [cytotoxic, single point]",
COc1ccc(S(=O)(=O)Nc2ccc3oc(C)c(C(=O)O)c3c2)cc1,"inconclusive: 29.1 µM [rising, single point]",
CCN(CC)CCCNC(=O)Cn1cnc2ccc(S(=O)(=O)N3CCC(C)CC3)cc2c1=O,inactive,
FC(F)(F)c1cccc(NC(=S)NC2CCCC2)c1,"inconclusive: 18.4 µM [cytotoxic, single point]",
CN(Cc1cnccn1)Cc1cn(Cc2ccccc2)nc1-c1ccc2c(c1)OCO2,inactive,
CCN(CC)C(=O)C1CCN(S(=O)(=O)c2ccc(-n3cnnn3)cc2)CC1,"inconclusive: 25.9 µM [cytotoxic, single point]",
COC(=O)C1CN(S(=O)(=O)c2ccccc2)CCN1S(=O)(=O)c1ccccc1 (configuration not stated),"inconclusive: 11.6 µM [cytotoxic, partial curve]",
